Measured values reported in article doi:10.1101/2022.11.02.514968.
These are yes or no findings as the source states them, for the method shown. In cells and extracts the contact can be indirect. Some results given as binding are weak or reduced against the parent protein; the word gives no strength. Sequences can lack the tags named with a protein.

Amino acid sequences for entries named in this document (tags omitted).
UniProt Q62318: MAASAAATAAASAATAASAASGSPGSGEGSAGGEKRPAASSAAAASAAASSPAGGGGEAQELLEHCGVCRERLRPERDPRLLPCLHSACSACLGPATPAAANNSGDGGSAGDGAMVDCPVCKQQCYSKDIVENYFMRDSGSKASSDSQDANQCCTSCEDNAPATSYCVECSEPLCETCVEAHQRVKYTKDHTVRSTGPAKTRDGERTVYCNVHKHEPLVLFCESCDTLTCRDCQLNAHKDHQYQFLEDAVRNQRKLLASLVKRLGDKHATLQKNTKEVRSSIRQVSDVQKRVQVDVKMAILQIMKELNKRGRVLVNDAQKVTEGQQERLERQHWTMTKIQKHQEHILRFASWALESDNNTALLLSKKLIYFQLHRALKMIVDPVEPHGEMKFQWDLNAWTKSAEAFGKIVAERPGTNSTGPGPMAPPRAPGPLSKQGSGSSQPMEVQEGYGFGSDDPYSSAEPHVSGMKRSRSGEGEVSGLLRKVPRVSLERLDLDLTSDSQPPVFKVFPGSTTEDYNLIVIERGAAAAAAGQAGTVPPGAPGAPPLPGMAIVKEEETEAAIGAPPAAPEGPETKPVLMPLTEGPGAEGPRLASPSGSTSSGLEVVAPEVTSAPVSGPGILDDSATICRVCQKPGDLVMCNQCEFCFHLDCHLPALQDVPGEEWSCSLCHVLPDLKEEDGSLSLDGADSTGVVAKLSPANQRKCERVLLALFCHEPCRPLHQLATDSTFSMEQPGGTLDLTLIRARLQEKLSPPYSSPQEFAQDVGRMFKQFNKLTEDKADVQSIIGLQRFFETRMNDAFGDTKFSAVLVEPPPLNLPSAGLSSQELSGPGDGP

Experiments:
[1] = target: MYC-TRIM28 (UniProt Q62318); assay: co-IP
[2] = target: MYC-SETDB1 (mouse) (UniProt O88974); assay: co-IP

binding [1]: binds | binding [2]: binds
B1: 3×Flag-POGZ (protein, UniProt Q8BZH4 1-1409)
chain: MADTDLFMECEEEELEPWQKISDVIEDSVVEDYNSVDKTTSVSVSQQPVSAPVPIAAHASVAGHLSTSTTVSNSGAQNSDSTKKTLVTLIANNNAGNTLVQQGGQPLILTQNPAPGLGTMVTQPVLRPVQVMQNANHVTSSPVASQPIFITTQGFPVRNVRPVQNAMNQVGIVLNVQQGQTVRPITLVPAPGTQFVKPTVGVPQVFSQMTPVRPGSTMPVRPTTNTFTTVIPATLTIRSTVPQSQSQQTKSTPSTSTTPTATQPTSLGQLAGQPPGQSNQTSNPKLAPSFPSPPAVSIASFVTVKRPGVTGENSNEVAKLVNTLNTVPSLGQSPGPVVVSNNSSAQRTSGPESSVKVTSSIPVFDLQDGGRKICPRCNAQFRVTEALRGHMCYCCPEMVEYQKKGKSLDAEPSVPSAAKPSSPEKTAPVTSTPSSTPIPALSPPTKVPEPNENAGDAVQTKLIMLVDDFYYGRDGGKAAQLTSFPKVATSFRCPHCTKRLKNNIRFMNHMKHHVELDQQNGEVDGHTICQHCYRQFSTPFQLQCHLENVHSPYESTTKCKICEWAFESEPLFLQHMKDTHKPGEMPYVCQVCQYRSSLYSEVDVHFRMIHEDTRHLLCPYCLKVFKNGNAFQQHYMRHQKRNVYHCNKCRLQFLFAKDKIEHKLQHHKTFRKPKQLEGLKPGTKVTIRASRGQPRTVPVSSNDAPSGTLQEAAALTSTDPLPVFLYPPVQRNIQKRAVRKMSVMGRQTCLECSFEIPDFPNHFPTYVHCSLCRYSTCCSRAYANHMINNHVPRKSPKYLALFKNSVSGIKLACTSCTFATSVGDAMAKHLVFNPSHRSSNILPRGLSWMSHLRPGQASERVFDWSMKNTYLPPPLVPNKAATVKPVGVTPAEPQELAGPVLQALPSPASTATPPATPTHPQPSALPPSATEGTECLNVSEQEEGSPVTQDPEPASGGGGGSGVGKKEQLSVKKLRVVLFALCCNTEQAAEHFRNPQRRIRRWLRRFQASQGENLEGKYLSFEAEEKLAEWVLIQREQQLPVNEETLFQKATKIGRSLEGGFKISYEWAVRFMLRHHLTPHARRAVAHTLPKHVAENAGLFIEFVQRQIHNQDLPLSMIVAIDEISLFLDTEVLSSDDRKENALQTVGTGEPWCDVVLAILADGTVLPTLVFFRGQANRFANVPDSILLEAKDSGYSDDEIMELWSTRVWKKHTACQHSKSMLVMDCHRTHLSEEVLALLSASSTLPAVVPAGCSSKIQPLDVCIKRTVKNFLHKKWKEQAREMADAACDSDVLLQLVLVWLGEVLGVIGDSPELVQRSFLVASVLPGPDGNVNSPTRNADMQEELIASLEEQLKLNGEQSEEHSASAPRPRSSPEETVEPESLHQLFEGESETESFYGFEEADLDLMEI
